From US20250318998A1, “REMINERALIZING RESTORATIVE COMPOSITIONS AND METHODS THEREOF” (ADA FORSYTH INSTITUTE, INC., priority 2023, published 2025)
Not every detail of the peptide structures is certain; ends, links or a residue may be inferred. Residues, ends and D or L forms follow the SMILES beside them.

Assay: Remineralization of artificial caries lesions on human tooth enamel treated with 8DSS, imaged by SEM/BSE

N[C@@H](CC(=O)O)C(=O)N[C@@H](CO)C(=O)N[C@@H](CO)C(=O)N[C@@H](CC(=O)O)C(=O)N[C@@H](CO)C(=O)N[C@@H](CO)C(=O)N[C@@H](CC(=O)O)C(=O)N[C@@H](CO)C(=O)N[C@@H](CO)C(=O)N[C@@H](CC(=O)O)C(=O)N[C@@H](CO)C(=O)N[C@@H](CO)C(=O)N[C@@H](CC(=O)O)C(=O)N[C@@H](CO)C(=O)N[C@@H](CO)C(=O)N[C@@H](CC(=O)O)C(=O)N[C@@H](CO)C(=O)N[C@@H](CO)C(=O)N[C@@H](CC(=O)O)C(=O)N[C@@H](CO)C(=O)N[C@@H](CO)C(=O)N[C@@H](CC(=O)O)C(=O)N[C@@H](CO)C(=O)N[C@@H](CO)C(=O)O [8DSS] (H-DSSDSSDSSDSSDSSDSSDSSDSS-OH; N-terminus and C-terminus assumed)
mineral content of teeth in backscattering electron (BSE) micrographs (20 μL 8DSS for 5 minutes, with remineralization solution, FIG. 1 row 1): enhanced mineral content | mineralization of the tooth surface in SEM micrographs (20 μL 8DSS for 5 minutes, with remineralization solution, FIG. 1 rows 4 and 5): enhanced mineralization | tooth interior (inside of the lesion) in SEM micrographs, difference between treatment conditions (cross sections, FIG. 1 rows 2 and 3, columns 1-4): no clear difference
